{
  "sequences": {"note": "Protein sequences, listed by entry. Tags and fused reporters are not part of them. Lines headed by an entry give the natural chain unless they say otherwise; changes in a name come on top.", "UniProt P48729": "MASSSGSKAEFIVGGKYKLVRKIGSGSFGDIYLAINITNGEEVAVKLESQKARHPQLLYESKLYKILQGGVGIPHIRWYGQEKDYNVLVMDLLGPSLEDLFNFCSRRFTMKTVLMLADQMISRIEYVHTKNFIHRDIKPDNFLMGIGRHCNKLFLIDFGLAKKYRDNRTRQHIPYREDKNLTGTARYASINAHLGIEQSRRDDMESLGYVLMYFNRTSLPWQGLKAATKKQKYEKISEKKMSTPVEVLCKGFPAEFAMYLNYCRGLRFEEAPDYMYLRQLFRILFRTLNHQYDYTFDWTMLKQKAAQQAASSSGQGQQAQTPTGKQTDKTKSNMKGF", "UniProt P48730": "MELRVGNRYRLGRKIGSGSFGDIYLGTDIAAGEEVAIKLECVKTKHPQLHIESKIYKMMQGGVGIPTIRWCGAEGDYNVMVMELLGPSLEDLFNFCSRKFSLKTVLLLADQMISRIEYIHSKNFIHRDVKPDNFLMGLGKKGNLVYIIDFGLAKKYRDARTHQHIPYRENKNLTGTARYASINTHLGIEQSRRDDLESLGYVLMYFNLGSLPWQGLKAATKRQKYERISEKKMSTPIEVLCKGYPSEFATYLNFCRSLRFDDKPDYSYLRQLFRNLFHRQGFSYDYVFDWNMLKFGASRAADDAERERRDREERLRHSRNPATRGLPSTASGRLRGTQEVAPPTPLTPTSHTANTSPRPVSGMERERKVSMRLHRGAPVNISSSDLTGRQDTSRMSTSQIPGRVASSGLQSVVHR", "UniProt P49674": "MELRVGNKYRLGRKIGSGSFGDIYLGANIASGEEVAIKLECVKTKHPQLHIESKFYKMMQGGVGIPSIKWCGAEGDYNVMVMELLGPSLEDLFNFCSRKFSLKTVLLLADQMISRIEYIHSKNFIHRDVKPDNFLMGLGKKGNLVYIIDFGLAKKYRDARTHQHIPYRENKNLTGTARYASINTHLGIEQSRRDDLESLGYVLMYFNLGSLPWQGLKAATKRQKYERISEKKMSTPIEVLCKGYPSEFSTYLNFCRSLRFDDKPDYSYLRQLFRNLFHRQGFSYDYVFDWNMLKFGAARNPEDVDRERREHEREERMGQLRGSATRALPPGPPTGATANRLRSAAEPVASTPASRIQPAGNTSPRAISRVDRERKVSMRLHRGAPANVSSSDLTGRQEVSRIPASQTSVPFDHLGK"},
  "source": "patent US20160250190A1",
  "about": "“N-METHYL PYRAZOLOANTHRONE FOR TREATMENT OF CANCER” (THE GENERAL HOSPITAL CORPORATION, priority 2013, published 2016)",
  "key": {"[1]": {"target": "CK1a1 (Homo sapiens, UniProt P48729)", "conditions": "0.5 μM inhibitor, 10 uM ATP; cited from earlier work"}, "[2]": {"system": "CDKi P21", "assay": "qPCR expression of CDKi P21 in ptD cells", "format": "cell-based, human", "conditions": "25 μM, 2-48 h", "excerpt": "To decipher the mechanism of cell cycle block observed by treatment with M-SP600, the inventors next assessed the expression of the kinases CDKi P15 and P21 by qPCR, since these kinases control G1/S transition."}, "[3]": {"system": "PtD cells xenografted in the flank of nude mice", "assay": "PtD xenograft in nude mice", "format": "in vivo", "conditions": "30 mg/kg/day for 3 consecutive days, one week after implant"}, "[4]": {"system": "arthritis", "conditions": "rat, Han et al. 2001; cited from earlier work"}, "[5]": {"system": "cancer cells and endothelial cell", "conditions": "Ennis et al. 2004; cited from earlier work"}, "[6]": {"target": "T1, MISR2 (MISRII) (Rattus norvegicus, UniProt Q62893)", "T1 construct": "UGR tissue is dissected from 14.5d female fetal rats and cultured ex-vivo; from tissue; host or cells: fetal rat urogenital ridge (14.5d female), organ culture", "T1 sequence (Q62893 18-557)": "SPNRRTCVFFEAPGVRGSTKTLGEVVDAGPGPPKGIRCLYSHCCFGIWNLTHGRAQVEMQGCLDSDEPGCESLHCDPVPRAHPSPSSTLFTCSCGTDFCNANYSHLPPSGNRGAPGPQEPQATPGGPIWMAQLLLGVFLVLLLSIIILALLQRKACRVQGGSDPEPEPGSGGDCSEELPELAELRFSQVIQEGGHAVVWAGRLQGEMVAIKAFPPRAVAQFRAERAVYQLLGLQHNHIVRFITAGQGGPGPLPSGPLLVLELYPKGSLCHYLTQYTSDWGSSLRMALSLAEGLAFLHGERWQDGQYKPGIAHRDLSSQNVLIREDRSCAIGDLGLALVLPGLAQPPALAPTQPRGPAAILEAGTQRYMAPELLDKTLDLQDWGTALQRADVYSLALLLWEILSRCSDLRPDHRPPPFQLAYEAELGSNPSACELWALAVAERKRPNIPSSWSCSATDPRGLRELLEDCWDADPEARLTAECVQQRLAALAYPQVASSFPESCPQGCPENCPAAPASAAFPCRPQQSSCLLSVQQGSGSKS", "assay": "rat fetal urogenital ridge (UGR) assay", "conditions": "25 uM, 72 h, UGR from 14.5d female fetal rats ex-vivo", "procedure": "UGR tissue is dissected from 14.5d female fetal rats and cultured ex-vivo on a semi solid substrate (agarose droplet on a metal grid) suspended over media at the air/media interface. The UGR from each female is cultured for 72 h in presence of the drugs while the contralateral ridge is cultured in vehicle (DMSO) as a control. The regression of the Mullerian duct, which is specific to MIS activity, is measured in sections of UGR after fixing and embedding."}, "[7]": {"system": "c-JUN phosphorylation (canonical downstream target of JNKs)", "assay": "western blot of c-JUN phosphorylation in ptD cells", "format": "cell-based, human", "conditions": "25 uM, 30 min"}, "[8]": {"system": "prostate and lung cancer cell lines", "conditions": "intra-peritoneally, alone or in combination with other chemotherapeutics, Ennis et al. 2004; cited from earlier work"}, "[9]": {"system": "OVCAR5 cells xenografted in the flank of nude mice", "assay": "OVCAR5 xenograft in nude mice", "format": "in vivo, mouse", "conditions": "60 mg/kg/day, 5 days on 2 days off for 3 weeks, versus control at day 15", "procedure": "A longer experiment was subsequently carried out using OVCAR5 cells xenografted at 1×10^6 in the flank of nude mice, which were treated 72 h later in a 5 days on 2 days off schedule for 3 weeks at a dose of 60 mg/kg/day using 3 groups of 5 mice randomly selected."}, "[10]": {"target": "T2, ARK5/NUAK1 (Homo sapiens, UniProt O60285)", "T2 sequence (O60285 1-661)": "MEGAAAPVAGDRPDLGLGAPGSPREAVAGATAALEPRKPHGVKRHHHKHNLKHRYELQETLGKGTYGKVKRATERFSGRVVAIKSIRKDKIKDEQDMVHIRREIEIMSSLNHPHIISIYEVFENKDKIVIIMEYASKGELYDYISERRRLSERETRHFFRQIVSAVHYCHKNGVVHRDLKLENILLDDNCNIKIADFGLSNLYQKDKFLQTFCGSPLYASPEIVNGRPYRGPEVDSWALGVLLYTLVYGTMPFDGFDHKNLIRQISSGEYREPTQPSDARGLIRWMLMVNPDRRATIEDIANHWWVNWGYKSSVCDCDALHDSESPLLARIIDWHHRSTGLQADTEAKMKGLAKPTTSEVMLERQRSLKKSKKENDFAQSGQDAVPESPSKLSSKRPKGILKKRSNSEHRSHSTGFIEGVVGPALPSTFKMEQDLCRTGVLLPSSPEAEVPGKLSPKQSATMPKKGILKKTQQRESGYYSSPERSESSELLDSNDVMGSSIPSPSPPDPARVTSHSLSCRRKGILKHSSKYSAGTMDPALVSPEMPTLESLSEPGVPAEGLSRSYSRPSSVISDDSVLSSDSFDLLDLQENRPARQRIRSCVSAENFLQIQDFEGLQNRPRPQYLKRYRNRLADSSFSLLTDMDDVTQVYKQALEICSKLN", "conditions": "0.5 μM inhibitor, 10 uM ATP; cited from earlier work"}, "[11]": {"system": "OVCAR5 cells", "assay": "cell cycle distribution by PI staining and flow cytometry in OVCAR5 cells", "format": "cell-based, human", "conditions": "OVCAR5 synchronized by serum deprivation 24 h, 25 uM with 10% serum", "excerpt": "(§1) This pattern is observed in both cells lines, but is particularly pronounced in OVCAR5 (FIG. 5C)."}, "[12]": {"system": "ptD cells", "assay": "cell cycle distribution by PI staining and flow cytometry in ptD cells", "format": "cell-based, human", "excerpt": "as §1"}, "[13]": {"system": "P54 and P46 JNK isoforms", "assay": "western blot with p-JNK antibody in ptD cells", "format": "cell-based, human", "conditions": "25 uM, 30 min"}, "[14]": {"target": "CK1d (Homo sapiens, UniProt P48730)", "conditions": "0.5 μM inhibitor, 10 uM ATP; cited from earlier work"}, "[15]": {"target": "T3, MISRII (Homo sapiens, UniProt Q16671)", "T3 sequence (Q16671 18-573)": "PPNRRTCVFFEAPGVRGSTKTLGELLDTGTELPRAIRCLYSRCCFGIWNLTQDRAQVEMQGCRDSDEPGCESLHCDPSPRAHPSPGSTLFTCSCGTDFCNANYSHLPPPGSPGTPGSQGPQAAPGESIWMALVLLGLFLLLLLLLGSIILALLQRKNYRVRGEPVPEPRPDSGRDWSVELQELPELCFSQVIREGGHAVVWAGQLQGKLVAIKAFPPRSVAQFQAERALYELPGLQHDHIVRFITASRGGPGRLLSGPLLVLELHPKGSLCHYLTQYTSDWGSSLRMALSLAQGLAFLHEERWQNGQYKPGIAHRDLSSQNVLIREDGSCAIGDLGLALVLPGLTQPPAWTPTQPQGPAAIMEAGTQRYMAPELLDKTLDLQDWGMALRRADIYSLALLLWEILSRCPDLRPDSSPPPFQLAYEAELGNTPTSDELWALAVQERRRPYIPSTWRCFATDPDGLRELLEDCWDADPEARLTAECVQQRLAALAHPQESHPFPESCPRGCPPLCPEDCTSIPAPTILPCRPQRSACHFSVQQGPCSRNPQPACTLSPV", "conditions": "Renlund et al. 2008; cited from earlier work"}, "[16]": {"target": "CK1e (Homo sapiens, UniProt P49674)", "conditions": "0.5 μM inhibitor, 10 uM ATP; cited from earlier work"}},
  "note": "For part of these data: For at least one compound, name, drawing or mass did not settle the structure. Some of these results come from one statement about several compounds together.",
  "data": [
    {"smiles": "Oc1c2ccccc2c2c3c(cccc13)N=N2", "note": "[SP600, 1,9-pyrazoloathrone, reference compound]", "values": [
      {"measurement": "inhibition of CK1a1", "setting": "[1]", "value": "more than 50%"},
      {"measurement": "expression of P21 by qPCR", "setting": "[2]", "value": "induce P21"},
      {"measurement": "tumor growth", "setting": "[3]", "value": "strong trend emerged of inhibition of tumor growth"},
      {"measurement": "joint destruction imaged by radiography", "setting": "[4]", "value": "almost completely prevented joint destruction"},
      {"measurement": "paw swelling", "setting": "[4]", "value": "moderately reduced paw swelling"},
      {"measurement": "cell growth and migration", "setting": "[5]", "value": "inhibited both cancer cells and endothelial cell growth and migration in-vitro"},
      {"measurement": "regression of the Mullerian duct", "setting": "[6]", "value": "induces regression of the Mullerian duct"},
      {"measurement": "c-JUN phosphorylation", "setting": "[7]", "value": "inhibited"},
      {"measurement": "tumor growth", "setting": "[8]", "value": "effective at slowing tumor growth"},
      {"measurement": "tumor growth", "setting": "[9]", "value": "significantly inhibited"},
      {"measurement": "inhibition of ARK5/NUAK1", "setting": "[10]", "value": "more than 50%"},
      {"measurement": "cell cycle block", "setting": "[11]", "value": "preferentially lead to accumulation of cells in G2"},
      {"measurement": "cell cycle distribution", "setting": "[12]; asynchronous ptD cells, 25 uM, 24 h", "value": "marked reduction in cells in S phase accompanied by an accumulation of cells particularly in G1 and less so in G2"},
      {"measurement": "cell cycle block", "setting": "[12]; ptD synchronized by serum deprivation 24 h, 25 uM with 10% serum", "value": "preferentially lead to accumulation of cells in G2"},
      {"measurement": "phosphorylation of the P54 and P46 JNK isoforms", "setting": "[13]", "value": "inhibits the phosphorylation of the P54 and P46 JNK isoforms"},
      {"measurement": "inhibition of CK1d", "setting": "[14]", "value": "more than 50%"},
      {"measurement": "activation of MISRII", "setting": "[15]", "value": "potent activator of MISRII"}
    ]},
    {"smiles": "Cn1nc2c3c(cccc31)C(=O)c1ccccc1-2", "note": "[M-SP600, N1-methyl-1,9-pyrazolothrone]", "values": [
      {"measurement": "inhibition of CK1a1", "setting": "[1]", "value": "more than 50%"},
      {"measurement": "inhibition of CK1e", "setting": "[16]", "value": "more than 50%"},
      {"measurement": "inhibition of ARK5/NUAK1", "setting": "[10]", "value": "more than 50%"},
      {"measurement": "inhibition of CK1d", "setting": "[14]", "value": "more than 50%"}
    ]}
  ]
}
